Our source for the binding values is publication doi:10.1101/521351 (bioRxiv, 2019).

Chains of the proteins cited; added tags and fusions are not shown. Residues count along the entry.
UniProt P61823, residues 27-150: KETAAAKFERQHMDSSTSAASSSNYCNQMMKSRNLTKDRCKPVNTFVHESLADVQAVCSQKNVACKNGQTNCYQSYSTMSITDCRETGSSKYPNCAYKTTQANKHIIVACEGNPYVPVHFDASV
UniProt P10997, residues 34-70: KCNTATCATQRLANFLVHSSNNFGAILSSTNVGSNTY

In test [1] the target is T1, ICA512 RESP18HD (regulated endocrine-specific protein 18 homology domain of ICA512, residues 35-131) (human) (UniProt Q16849).
T1 sequence: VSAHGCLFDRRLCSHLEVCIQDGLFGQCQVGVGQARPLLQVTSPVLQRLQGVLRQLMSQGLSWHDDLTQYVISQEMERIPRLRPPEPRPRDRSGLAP
Description: co-sedimentation.

Test [2] deals with T1, ICA512 RESP18HD (regulated endocrine-specific protein 18 homology domain of ICA512, residues 35-131) (human). Briefly: light scattering.
The target is the same in test [3]. Description: light scattering. This is another data set of the same source.
The target is the same in test [4]. Briefly: light scattering. This is another data set of the same source.
The target is the same in test [5]. Briefly: light scattering. The source holds these as a separate data set.

These are yes or no findings as the source states them, for the method shown. Some results given as binding are weak or reduced against the parent protein; the word gives no strength.

In the case of “RNase A (from UniProt P61823 27-150) (enzyme)”, the binding result in test [1] is “no binding (tested: 8 uM)”.
Regarding “Amylin (from UniProt P10997 34-70) (peptide)”, the binding result in test [2] is “no binding (tested: 8 uM amylin)”.

B1: ICA512 RESP18HD (regulated endocrine-specific protein 18 homology domain of ICA512, residues 35-131) (domain or fragment, human, UniProt Q16849 35-131, looked up)
chain: T1 sequence
Regarding B1, the binding entry in test [3] is “binds weakly”; in test [4], “no binding (condition: pH 4.5)”; in test [5], “no binding (condition: pH 6.8)”.
